We go through 1 substance from doi:10.1101/564625.

Amino acid sequences for entries named in this document (tags omitted).
UniProt Q9UJU2: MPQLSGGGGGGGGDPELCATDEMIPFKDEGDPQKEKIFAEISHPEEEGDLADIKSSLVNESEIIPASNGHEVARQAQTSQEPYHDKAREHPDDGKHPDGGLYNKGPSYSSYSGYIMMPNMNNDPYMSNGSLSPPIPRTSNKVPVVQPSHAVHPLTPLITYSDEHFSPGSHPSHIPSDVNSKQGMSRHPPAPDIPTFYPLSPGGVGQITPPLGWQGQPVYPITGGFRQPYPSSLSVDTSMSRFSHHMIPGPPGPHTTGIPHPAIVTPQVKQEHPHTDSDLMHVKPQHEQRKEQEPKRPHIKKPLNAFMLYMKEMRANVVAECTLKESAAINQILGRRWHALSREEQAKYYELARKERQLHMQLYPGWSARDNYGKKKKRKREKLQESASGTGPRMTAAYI

The assay deals with T1, V5-FOXB2 (human) (UniProt Q5VYV0).
T1 sequence: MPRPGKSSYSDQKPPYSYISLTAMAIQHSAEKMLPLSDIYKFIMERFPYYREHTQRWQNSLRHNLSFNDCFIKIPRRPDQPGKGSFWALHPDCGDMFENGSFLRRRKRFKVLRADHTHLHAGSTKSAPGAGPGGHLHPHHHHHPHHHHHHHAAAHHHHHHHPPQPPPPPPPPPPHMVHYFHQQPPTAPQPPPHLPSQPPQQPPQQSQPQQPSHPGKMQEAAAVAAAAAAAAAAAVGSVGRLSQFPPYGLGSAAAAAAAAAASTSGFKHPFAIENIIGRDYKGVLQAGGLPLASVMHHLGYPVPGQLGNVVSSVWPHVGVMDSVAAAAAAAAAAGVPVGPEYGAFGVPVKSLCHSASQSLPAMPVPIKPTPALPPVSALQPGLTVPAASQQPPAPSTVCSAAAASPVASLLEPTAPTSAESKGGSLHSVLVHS
Briefly: proximity ligation.

Results are given in words; binding and its absence hold for the method and conditions named. Binding seen in cells or lysates may run through a third protein. Sequences can lack the tags named with a protein.

On to “Flag-LEF1 (293T) (from UniProt Q9UJU2 1-399)”, for which the binding result is on record as “no binding”.
